Consider one molecule from US20250382386A1.

Chains of the proteins cited; added tags and fusions are not shown. Residues count along the entry.
UniProt P37023, residues 22-503: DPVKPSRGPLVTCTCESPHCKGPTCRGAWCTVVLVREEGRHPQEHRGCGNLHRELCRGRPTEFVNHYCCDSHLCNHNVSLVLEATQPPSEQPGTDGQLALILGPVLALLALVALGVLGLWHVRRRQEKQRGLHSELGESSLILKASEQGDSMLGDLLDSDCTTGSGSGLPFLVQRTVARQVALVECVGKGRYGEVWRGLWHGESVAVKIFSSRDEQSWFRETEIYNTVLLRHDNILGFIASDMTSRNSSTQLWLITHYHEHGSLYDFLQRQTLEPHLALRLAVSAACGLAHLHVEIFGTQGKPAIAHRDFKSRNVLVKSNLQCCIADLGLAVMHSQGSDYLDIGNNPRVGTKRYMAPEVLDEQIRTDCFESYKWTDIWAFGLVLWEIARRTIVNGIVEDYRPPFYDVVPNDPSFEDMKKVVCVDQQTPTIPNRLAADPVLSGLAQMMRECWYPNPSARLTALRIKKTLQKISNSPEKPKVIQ

The target in assay [1] is human ALK-1 on cells (CHO-K1-hALK-1 cells; HUVEC; A172) (human) (UniProt P37023). Nature of the assay: flow cytometry competition on CHO-K1-hALK1 cells, BMP9 titrated, competitor BEV813.
For assay [2] the target is unchanged. As to the kind of experiment: flow cytometry on CHO-K1-hALK1 cells, MFI of bound BEV813; BMP9 at 12 fixed concentrations (0 to 50.0 nM) competes with BEV813. (In general: In flow cytometry, cells or beads pass a laser one at a time.)

Results are given in words; binding and its absence hold for the method and conditions named. Some binding calls cover weakened binding; strength is not graded here.

B1: BMP9 (Acro, GD2-H5211) (ligand, UniProt Q9UK05 320-429, looked up)
chain: SAGAGSHCQKTSLRVNFEDIGWDSWIIAPKEYEAYECKGGCFFPLADDVTPTKHAIVQTLVHLKFPTKVGKACCVPTKLSPISVLYKDDMGVPTLKYHYEGMSVAECGCR
Take B1: the binding result in assay [1] and in assay [2] was “binds” throughout.
